# Assay results as given in PubChem BioAssay AID1347426 (Functional Genomics Laboratory (NCATS/FGL), 2020).
# In all, about 31,000 sequences went through this assay and about 1,400 (4.5%) were called active.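 How the source made its calls: active means median seed-adjusted z-score above 1 or below -1; inactive means the rest.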 The list shows a part of the results.
# Assay: Novel Modifiers of Survival Motor Neuron (SMN) Protein: Gene Identification via Genome-wide siRNA Screen;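 further: luminescence tracks full-length SMN protein made from the SMN2 reporter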
# Conditions: HEK293T SMN2-luciferase reporter, siRNA knockdown, 72 h; actives lie on both sides
# In short: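 Each of three siRNAs per gene is reverse-transfected (1 pmol) into reporter HEK293T cells whose luciferase output tracks SMN protein level. After 72 h culture, ONE-Glo luminescence is control-normalized, log10-transformed and MAD-standardized; Common Seed Analysis deprioritizes seed-driven hits.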
row,Sequence,median seed-adjusted z-score
1,CCAUCUGUCGCAUAUCUCATT against ACOX2,inactive: -0.545
2,GGAAGUACGAGGUCACUUATT against EPHA2,inactive: 0.0948
3,GGUUGACAGUGUGCCUAAATT against NRIP1,inactive: 0.789
4,CGAGGACAGUUCUACUAUATT against HSD3B1,inactive: -0.145
5,CUGGAUUUACUAUAACCAATT against NME7,inactive: -0.331
6,CGCUCACAGUACGACUACATT against SOX9,inactive: 0.775
7,GAGCAGGACUAAACGAAUUTT against SGK3,inactive: 0.178
8,CCGAGAUCAUGGACGCCUUTT against BOK,inactive: 0
9,GAUUGGAACUUUCACCGAATT against NOM1,inactive: 0.00828
10,GGUCUUUCCAGAUACUAAATT against SMPDL3B,inactive: 0.0704
11,GAGGAAAUUUGAGAAAGUUTT against UTS2,inactive: 0.0487
12,UCACCAUCCUGGUUGCUCUTT against GHRHR,inactive: 0
13,GAAAGGUACUACUACUAUUTT against KLHL4,inactive: 0
14,GGGAUGGACUUACCAGAUATT against ZNF304,inactive: -0.44
15,ACGCAACCCUCAACAGCUCTT against UTS2R,inactive: 0.0819
16,GGACAGCUGCAAUUCCGAUTT against HECW1,inactive: -0.878
17,GCAAUGCUGUUAUCAAUGATT against KIF1B,inactive: 0.376
18,CAACCUCACUGAUCGUCAATT against HOXA11,inactive: -0.222
19,CGAGAUAGUGGAUCAGCAATT against MANBA,inactive: 0.473
20,AAAUGUAACCUUUUGCUUUTT against DAD1,inactive: -0.45
21,GCAAGUGUAGUUUGAAAAATT against SCUBE2,inactive: 0.452
22,CACUUAAUCUGGGCAUGAATT against ZNF334,inactive: 0.611
23,GAAAAUAAUUGAUAGAAGATT against SERBP1,inactive: 0.143

row,Sequence,median seed-adjusted z-score
1,GGGUGUCUAUGGAAUGGGATT against ME2,inactive: -0.0557
2,GGAACUACAGAUGAAUUAATT against MMAB,inactive: 0
3,CGACAACACCGUGUCCAAATT against BMP1,inactive: -0.298
4,GAUGAACGAUUUGAACAAATT against BIN2,inactive: 0.205
5,CCAUGGAGUGGGCAAGUUATT against AGPS,inactive: 0.289
6,AGGUGAUGCAGGACAGAAATT against COL18A1,inactive: -0.441
7,CCAUCCAUCAACUUCUAUATT against SAT1,inactive: -0.00791
8,GCUCUACGAAGAGACCCUATT against SERPINB5,inactive: -0.0181
9,GGUCCUGUUGGAGAUGAUATT against UBE2D2,inactive: 0.574
10,GGCUCAGAUUCGCAACAAATT against EMX2,inactive: 0.324
11,GACCUAUUAUGAUGGAGCATT against SCUBE2,inactive: 0.452
12,GGCUAUUGCACAUUAUGAATT against NAPB,inactive: 0.716
13,CACAUGCACUAGAACGGAATT against BAZ2B,inactive: -0.679
14,CGCUACCUGUCCCUGUAUATT against GPR6,inactive: 0
15,CAGCGGCAGUAUUACCCAATT against PHC3,inactive: -0.204
16,CUGCCCAUCUUCAACCGAATT against ZDHHC1,inactive: 0
17,ACGCAGAUUUCUACAGAAATT against COX6C,inactive: -0.0449
18,UGCGGACACUGGAAAGAAATT against ZNHIT1,inactive: -0.497
19,CGAUUAGAAAUCAACAUGATT against MLKL,inactive: 0
20,UCUUCAGUCUGGUCCCGGATT against RXFP3,inactive: -0.0651
21,CGUGUUCGGCGAGACAGAATT against HOXB6,inactive: -0.168
22,CAAUUACUGUUAUCGUUGUTT against PPP2CB,inactive: 0.486
23,CAAGCAUCGUGACAGAGCATT against DDX28,inactive: -0.305

row,Sequence,median seed-adjusted z-score
1,GGAGAGAAGUCUUACAAGUTT against ZNF91,inactive: 0.105
2,CUCCCAAUGUUGCUCGUAATT against UCP2,inactive: -0.111
3,GUAGUGGAGUUGCCCGUGATT against TBC1D10A,inactive: -0.722
4,ACGAGUACUUCUACAUUCUTT against KCNE4,inactive: 0.0795
5,GGCUAUCAAGGACUCACAATT against PAOX,inactive: 0
6,UAAUCUCACCUGUAACUUUTT against NANOS1,inactive: 0.369
7,GGAUUUACCGGAGGAAAAUTT against OTUB2,inactive: 0.513
8,GCAACACUGUCAUUUGGGATT against CR1L,inactive: -0.038
9,GCUUAUAGAUUGUAUUCGATT against HECTD1,inactive: -0.0588
10,GAACAUCUUCUGGACCUUUTT against ZNF169,inactive: 0
11,GUACAAUCGUUGACAAUGATT against PPEF1,inactive: -0.58
12,GAAGUUUACUUAUCUGGGUTT against PRKAB1,inactive: 0.536
13,GAACAAGGAUGGAUUUAUUTT against GUCA1C,inactive: -0.617
14,GCACCGACCUCAUGUUCAATT against NACC2,inactive: 0.144
15,GAAGAGGUAUUGAAUGCUATT against SRP54,inactive: 0.203
16,GUCCCGUGCUUGCUAGUCATT against ZNF324,inactive: 0
17,GGUGCCUAAUGAGAAGGGATT against AGER,inactive: 0.506
18,GGAACAUCAUUCUACCCAATT against KIF15,inactive: -0.873
19,GAUAAAAACAGUCCUUUCUTT against FXYD3,inactive: 0.254
20,GAAAUGUGGUACUAAAGCATT against RALBP1,inactive: -0.0514
21,AGGACUAGAUGGAGCAAAATT against COL13A1,inactive: -0.112
22,GUUUUAUCCUGAUUCAUCATT against ZNF69,inactive: 0
23,GCCUUCAAAUAUUCCUCGATT against ZNF333,inactive: 0.418

# Another view of part of the listing above.
row | Sequence | median seed-adjusted z-score
12 | GAAGUUUACUUAUCUGGGUTT against PRKAB1 | inactive: 0.536
13 | GAACAAGGAUGGAUUUAUUTT against GUCA1C | inactive: -0.617
14 | GCACCGACCUCAUGUUCAATT against NACC2 | inactive: 0.144
15 | GAAGAGGUAUUGAAUGCUATT against SRP54 | inactive: 0.203
